Results from paper PMC5807518.
These are yes or no findings as the source states them, for the method shown. For part of these data: Binding seen in cells or lysates may run through a third protein. Some results given as binding are weak or reduced against the parent protein; the word gives no strength. For part of these data: Tags and fused reporters may be left off the sequences shown.

By UniProt entry, the sequences of proteins in these tests, tags left out.
UniProt Q8C6L5: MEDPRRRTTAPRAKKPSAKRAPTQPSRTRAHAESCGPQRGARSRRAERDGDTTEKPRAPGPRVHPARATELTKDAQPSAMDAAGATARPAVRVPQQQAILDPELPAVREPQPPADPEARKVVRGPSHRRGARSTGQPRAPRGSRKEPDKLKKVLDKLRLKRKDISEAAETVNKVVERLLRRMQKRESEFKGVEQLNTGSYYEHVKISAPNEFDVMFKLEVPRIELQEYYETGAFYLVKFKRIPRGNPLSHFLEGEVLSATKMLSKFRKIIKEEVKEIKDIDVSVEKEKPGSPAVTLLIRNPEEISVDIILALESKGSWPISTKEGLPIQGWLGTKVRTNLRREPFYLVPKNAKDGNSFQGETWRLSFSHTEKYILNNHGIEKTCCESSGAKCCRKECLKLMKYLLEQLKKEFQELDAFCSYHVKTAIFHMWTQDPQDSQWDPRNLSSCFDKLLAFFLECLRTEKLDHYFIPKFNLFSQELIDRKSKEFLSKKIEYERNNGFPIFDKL
UniProt Q14258: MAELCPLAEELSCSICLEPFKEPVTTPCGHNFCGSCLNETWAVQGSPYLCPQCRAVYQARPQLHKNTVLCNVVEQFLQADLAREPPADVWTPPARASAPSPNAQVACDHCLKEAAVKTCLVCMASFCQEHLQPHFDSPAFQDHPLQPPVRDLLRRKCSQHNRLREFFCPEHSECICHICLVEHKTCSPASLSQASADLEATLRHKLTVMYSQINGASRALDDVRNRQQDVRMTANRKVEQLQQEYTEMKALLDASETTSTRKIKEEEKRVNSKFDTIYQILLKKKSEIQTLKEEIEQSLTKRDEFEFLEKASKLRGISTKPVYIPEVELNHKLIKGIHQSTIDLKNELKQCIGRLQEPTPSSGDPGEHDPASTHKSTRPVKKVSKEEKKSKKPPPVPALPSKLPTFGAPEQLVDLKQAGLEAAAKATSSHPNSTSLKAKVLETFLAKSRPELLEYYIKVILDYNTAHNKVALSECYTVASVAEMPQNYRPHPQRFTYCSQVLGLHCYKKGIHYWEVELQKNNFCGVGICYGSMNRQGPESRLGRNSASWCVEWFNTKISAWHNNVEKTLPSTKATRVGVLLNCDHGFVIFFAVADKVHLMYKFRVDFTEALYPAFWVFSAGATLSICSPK

B1: Mouse TRIM56-V5 (protein, UniProt Q80VI1 1-734)
chain: MNSKVSSPTLLEALSSDFLACKICLEQLHTPKTLPCLHTYCQDCLAQLDIGGQVRCPECREIVPVPAEGVAAFKTNFFVNGLLDLVKARAPGDVHSGKPTCALCPLVGGKSSGGPATARCLDCADDLCQACADGHRCSRQTHKHRVVDLVGYRAGWYDEEARERQASQCPQHPGEALCFLCQPCSQLLCKDCRLGPHIDHPCLPLAEAVRSRKPGLEELLAGVDSNLVELEATRVAEKEALALLREQAASVGTQVEEAAERILKSLLAQKQEVLGQLRALVEAAEEATRERLTKIERQEQVAKAAAAFARRVLSLGLEAEILSLEGAITQRLRQLQDAPWTSGPTRCVLPQLELHPGLEDKNCHLLRLIFEEPKQSPKDSGKGGAGTQGGDEAQGQGDDRTKIGKQGGAQPLTPKEGKDQNPQEDDGVFIERGNRPNKKKKCKGRGKSVSREPSPILRPNLEGSGLLPRPVFSWSFPTRMPGDKRSPRITGLCPYGPQEILVADEQNRVLKRFSLNGDYKGTVQVPEGCSPCSVAALQNAVAFSANAKLYLVSPDGEIQWRRSLSLTQSSHAVAAMPCGDRVAVSVAGHVEVYKKDGSLATRFIPGGKASRGQRALVFLTTSPQGNFVGSDWQQNSVVFCDGLGQVIWEYKGPGLHGCQPGSVSVDKKGYIFLTLREVNKVVILDPKGSLLGDFLTAYHGLEKPRVTTMVDGKYLVVSLSNGTIHVFRVRFPDS
B2: TRIM56 purified from HEK293T cells (protein, UniProt Q80VI1 1-734)
chain: B1 chain

How the values were obtained:
[1] = molecular target: cGAS-FLAG (cyclic GMP-AMP synthase, FLAG-tagged) (not stated (human or mouse cDNA cloned)) (UniProt Q8C6L5); assay: co-IP
[2] = molecular target: Full-length (FL) cGAS fused with maltose-binding protein (MBP) (mouse) (UniProt Q8C6L5); assay: pull-down; both purified

| Molecule | binding [1] | binding [2] |
| --- | --- | --- |
| TRIM25-V5 (from UniProt Q14258 1-630) | no binding | – |
| B1 | binds | – |
| B2 | – | binds |
